In the supplement of paper PMC12067093, “Discovery and optimisation of a covalent ligand for TRIM25 and its application to targeted protein ubiquitination” (Chemical Science, 2025):
The list shows a part of the results.

Sequences of proteins named here, by UniProt entry; tags and fusion partners are left off. A change or cut given only in a name is not applied to a line headed by its entry.
UniProt P26640: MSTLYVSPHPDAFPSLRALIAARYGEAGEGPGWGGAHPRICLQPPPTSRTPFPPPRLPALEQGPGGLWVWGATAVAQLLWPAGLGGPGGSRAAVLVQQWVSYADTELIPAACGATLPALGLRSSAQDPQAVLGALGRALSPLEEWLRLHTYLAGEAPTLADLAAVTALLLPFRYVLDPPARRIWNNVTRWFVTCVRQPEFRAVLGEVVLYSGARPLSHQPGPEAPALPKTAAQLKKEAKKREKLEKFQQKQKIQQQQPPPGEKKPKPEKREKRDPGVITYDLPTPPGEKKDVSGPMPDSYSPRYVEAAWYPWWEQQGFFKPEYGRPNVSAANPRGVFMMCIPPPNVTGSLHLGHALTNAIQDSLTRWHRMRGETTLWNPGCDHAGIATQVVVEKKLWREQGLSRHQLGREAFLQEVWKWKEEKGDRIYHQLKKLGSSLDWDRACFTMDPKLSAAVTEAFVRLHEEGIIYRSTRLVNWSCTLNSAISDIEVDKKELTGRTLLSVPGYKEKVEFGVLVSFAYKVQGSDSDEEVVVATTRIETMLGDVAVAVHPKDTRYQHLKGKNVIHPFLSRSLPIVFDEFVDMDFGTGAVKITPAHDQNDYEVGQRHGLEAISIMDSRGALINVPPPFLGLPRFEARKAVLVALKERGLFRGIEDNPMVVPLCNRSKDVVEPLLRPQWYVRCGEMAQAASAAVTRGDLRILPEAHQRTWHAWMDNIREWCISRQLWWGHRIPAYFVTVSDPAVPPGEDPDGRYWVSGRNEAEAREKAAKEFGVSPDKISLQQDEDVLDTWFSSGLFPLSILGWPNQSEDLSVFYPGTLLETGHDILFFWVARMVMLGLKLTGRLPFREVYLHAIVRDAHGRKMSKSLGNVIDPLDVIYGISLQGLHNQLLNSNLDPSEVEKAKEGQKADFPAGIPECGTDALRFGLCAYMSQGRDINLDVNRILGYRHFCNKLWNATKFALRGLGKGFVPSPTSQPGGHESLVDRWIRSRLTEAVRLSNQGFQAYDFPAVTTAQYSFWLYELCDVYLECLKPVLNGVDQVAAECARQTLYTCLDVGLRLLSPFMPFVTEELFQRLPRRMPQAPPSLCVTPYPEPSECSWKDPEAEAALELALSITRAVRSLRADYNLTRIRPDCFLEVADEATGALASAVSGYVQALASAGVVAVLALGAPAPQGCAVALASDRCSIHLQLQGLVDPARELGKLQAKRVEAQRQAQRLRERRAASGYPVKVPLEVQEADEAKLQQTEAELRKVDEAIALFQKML
UniProt Q9BRU9: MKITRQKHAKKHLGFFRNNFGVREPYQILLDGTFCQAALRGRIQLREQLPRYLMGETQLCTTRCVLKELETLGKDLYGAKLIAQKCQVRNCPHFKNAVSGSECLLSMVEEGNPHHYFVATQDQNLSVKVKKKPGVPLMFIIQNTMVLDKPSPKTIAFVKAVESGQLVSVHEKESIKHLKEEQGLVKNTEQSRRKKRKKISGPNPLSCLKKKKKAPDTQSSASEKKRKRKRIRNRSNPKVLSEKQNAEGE
UniProt P46939: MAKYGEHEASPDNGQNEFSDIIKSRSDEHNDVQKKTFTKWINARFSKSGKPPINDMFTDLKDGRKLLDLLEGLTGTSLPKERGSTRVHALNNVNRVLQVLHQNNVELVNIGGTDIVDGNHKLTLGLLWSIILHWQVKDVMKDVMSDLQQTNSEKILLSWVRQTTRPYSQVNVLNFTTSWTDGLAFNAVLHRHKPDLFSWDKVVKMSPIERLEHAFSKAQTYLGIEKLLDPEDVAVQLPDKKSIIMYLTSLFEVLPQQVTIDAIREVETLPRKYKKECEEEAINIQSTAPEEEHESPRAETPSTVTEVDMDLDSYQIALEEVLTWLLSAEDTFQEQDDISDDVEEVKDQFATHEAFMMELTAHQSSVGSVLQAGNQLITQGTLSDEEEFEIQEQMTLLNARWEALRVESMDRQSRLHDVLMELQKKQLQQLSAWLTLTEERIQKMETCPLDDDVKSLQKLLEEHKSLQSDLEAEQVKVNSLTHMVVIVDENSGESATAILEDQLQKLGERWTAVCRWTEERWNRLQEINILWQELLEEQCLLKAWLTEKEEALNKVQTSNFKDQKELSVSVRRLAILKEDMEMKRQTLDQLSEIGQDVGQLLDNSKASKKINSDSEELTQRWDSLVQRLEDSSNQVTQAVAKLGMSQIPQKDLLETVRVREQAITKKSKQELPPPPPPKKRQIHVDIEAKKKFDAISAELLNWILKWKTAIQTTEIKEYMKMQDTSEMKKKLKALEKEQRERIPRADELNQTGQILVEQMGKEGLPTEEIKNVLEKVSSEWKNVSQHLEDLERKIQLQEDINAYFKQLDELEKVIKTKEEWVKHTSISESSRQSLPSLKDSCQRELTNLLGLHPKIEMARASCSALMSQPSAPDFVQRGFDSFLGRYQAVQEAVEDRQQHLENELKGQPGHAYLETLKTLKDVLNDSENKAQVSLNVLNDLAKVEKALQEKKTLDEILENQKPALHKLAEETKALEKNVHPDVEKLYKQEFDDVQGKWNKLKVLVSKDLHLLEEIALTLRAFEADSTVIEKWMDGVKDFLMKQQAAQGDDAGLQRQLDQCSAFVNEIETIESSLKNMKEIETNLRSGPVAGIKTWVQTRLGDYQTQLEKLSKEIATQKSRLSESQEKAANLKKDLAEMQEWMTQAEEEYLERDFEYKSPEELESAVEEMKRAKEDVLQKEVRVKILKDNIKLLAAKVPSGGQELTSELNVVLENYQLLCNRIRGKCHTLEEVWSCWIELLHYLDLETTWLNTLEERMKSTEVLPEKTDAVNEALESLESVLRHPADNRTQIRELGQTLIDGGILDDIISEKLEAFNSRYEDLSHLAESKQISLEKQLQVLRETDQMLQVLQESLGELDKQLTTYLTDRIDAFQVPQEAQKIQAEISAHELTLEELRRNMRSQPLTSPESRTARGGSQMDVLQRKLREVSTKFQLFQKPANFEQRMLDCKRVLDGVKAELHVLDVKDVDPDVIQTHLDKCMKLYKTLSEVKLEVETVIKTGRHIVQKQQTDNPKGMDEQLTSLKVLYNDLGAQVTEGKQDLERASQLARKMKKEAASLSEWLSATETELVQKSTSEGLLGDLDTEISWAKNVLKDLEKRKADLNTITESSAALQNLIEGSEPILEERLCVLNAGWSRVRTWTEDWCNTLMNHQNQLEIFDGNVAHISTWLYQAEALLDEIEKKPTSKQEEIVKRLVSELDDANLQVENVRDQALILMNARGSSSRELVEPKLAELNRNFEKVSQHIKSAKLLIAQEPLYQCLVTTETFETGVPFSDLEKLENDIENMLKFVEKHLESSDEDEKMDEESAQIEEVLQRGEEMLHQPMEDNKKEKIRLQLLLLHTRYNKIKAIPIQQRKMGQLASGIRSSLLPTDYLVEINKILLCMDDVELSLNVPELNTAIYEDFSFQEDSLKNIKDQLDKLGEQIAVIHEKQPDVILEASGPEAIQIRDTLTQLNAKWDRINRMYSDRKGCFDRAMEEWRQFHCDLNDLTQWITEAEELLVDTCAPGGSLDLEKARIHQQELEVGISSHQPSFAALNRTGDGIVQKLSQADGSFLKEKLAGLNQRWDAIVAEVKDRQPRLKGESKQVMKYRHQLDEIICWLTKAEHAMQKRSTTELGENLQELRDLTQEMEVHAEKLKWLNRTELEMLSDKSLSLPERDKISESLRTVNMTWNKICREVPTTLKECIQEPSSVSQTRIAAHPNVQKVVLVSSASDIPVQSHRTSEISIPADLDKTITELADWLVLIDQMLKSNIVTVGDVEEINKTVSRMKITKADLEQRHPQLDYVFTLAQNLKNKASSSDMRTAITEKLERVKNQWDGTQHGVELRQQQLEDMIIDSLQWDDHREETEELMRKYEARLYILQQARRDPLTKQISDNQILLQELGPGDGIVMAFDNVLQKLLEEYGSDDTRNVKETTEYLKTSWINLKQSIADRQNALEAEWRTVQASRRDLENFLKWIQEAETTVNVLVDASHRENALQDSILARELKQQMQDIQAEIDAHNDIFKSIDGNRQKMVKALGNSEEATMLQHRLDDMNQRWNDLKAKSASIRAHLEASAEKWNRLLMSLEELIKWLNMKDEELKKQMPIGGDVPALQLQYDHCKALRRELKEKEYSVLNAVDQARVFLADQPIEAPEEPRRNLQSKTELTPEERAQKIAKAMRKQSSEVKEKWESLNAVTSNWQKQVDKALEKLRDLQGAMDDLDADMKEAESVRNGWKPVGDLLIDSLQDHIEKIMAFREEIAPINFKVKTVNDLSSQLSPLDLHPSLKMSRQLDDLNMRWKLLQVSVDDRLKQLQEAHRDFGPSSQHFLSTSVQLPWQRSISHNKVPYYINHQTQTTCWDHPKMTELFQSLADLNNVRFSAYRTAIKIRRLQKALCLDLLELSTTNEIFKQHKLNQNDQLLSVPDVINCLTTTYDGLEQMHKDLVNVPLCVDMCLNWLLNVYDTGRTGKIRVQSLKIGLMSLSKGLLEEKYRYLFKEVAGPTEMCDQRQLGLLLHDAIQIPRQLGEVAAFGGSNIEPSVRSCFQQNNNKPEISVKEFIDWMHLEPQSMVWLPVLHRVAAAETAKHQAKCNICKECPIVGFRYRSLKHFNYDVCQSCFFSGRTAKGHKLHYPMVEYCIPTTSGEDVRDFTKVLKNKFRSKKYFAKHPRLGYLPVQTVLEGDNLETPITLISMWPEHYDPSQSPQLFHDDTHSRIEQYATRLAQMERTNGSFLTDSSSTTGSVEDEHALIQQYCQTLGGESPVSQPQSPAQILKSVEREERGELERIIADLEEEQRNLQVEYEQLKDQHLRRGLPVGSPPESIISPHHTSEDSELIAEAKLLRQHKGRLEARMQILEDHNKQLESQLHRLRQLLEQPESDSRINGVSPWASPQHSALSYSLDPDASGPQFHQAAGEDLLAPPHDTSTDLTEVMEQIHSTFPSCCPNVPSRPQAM
UniProt Q8N3P4: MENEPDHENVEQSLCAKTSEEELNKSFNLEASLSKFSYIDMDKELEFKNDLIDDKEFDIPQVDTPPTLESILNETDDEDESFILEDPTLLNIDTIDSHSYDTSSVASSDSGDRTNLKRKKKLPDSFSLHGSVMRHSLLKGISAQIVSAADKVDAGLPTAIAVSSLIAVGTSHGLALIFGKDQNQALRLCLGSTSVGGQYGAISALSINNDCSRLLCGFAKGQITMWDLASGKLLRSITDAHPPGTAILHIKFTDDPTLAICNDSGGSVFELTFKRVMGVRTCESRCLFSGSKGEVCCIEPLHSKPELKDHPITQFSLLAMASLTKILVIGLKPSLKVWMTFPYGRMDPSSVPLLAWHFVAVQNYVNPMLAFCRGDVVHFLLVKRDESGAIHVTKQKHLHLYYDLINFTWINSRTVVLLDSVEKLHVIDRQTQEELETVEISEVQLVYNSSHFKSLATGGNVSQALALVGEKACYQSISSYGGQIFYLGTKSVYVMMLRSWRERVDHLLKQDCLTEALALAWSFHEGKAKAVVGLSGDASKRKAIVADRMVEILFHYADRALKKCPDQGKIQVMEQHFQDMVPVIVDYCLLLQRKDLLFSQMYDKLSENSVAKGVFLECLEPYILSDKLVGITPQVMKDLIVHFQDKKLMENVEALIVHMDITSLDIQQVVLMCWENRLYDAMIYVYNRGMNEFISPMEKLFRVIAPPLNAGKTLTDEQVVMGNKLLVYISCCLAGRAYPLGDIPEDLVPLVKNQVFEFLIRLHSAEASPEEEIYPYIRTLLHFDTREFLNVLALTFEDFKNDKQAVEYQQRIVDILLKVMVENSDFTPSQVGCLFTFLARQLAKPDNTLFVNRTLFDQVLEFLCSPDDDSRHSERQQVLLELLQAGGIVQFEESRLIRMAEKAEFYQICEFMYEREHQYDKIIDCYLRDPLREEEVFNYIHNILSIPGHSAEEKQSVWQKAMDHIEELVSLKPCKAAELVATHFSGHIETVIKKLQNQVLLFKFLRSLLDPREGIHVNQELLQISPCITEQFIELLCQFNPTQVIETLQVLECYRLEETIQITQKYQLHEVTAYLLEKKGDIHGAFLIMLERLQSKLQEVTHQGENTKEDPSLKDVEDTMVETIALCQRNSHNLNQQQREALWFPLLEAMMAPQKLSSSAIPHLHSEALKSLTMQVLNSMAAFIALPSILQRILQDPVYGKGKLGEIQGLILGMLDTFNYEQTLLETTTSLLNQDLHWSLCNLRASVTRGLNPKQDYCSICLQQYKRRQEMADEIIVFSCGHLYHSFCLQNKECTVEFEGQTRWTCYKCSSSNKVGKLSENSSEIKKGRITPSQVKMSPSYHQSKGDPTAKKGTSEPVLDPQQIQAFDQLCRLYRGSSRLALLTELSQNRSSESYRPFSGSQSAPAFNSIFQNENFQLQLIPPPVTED

Compound: CC1Cc2ccccc2N1C(=O)C1CCCN(C1)C(=O)CCl (mixture of isomers) [TRIM25 ligand 11 (diastereomer mixture)]
Assay: probe-labelled cysteine peptide fold change vs DMSO (competition) (log2 fold change); higher = less target engagement (more negative = stronger competition)
Settings: THP-1, incubation time: 4 h
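Also: competitive chemoproteomic profiling in live THP-1 cells with an iodoacetamide desthiobiotin (IA-DTB) probe, comparing probe-labelled peptide intensities in compound-treated cells against DMSO-treated controls.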

| Target | probe-labelled cysteine peptide fold change (10 µM) | probe-labelled cysteine peptide fold change (50 µM) |
| --- | --- | --- |
| VRK3_Q8IV63_418_FVDKPGPFVGPCGHWIRPSETLQK (UniProt Q8IV63) | -0.127 | -0.248 |
| VARS_P26640_381_MRGETTLWNPGCDHAGIATQVVVEK (UniProt P26640) | 0.0494 | -0.0393 |
| VCPIP1_Q96JH7_541_DVLVPDYGMSNLTACNWCHGTSVR (UniProt Q96JH7) | -0.171 | -0.202 |
| UTP23_Q9BRU9_207_ISGPNPLSCLK (UniProt Q9BRU9) | -0.071 | -0.0449 |
| VPS53_Q5VIR6_424_CFEPHLYVYIESQDK (UniProt Q5VIR6) | 0.082 | 0.253 |
| VAV3_Q9UKW4_7_QCAQWLIHCK (UniProt Q9UKW4) | 0.0168 | 0.168 |
| VAT1_Q99536_324_AVCGFHLGYLDGEVELVSGVVAR (UniProt Q99536) | 0.0529 | -0.0181 |
| VLDLR_P98155_33_CEPSQFQCTNGR (UniProt P98155) | -0.0235 | -0.0407 |
| VPS16_Q9H269_408+422_CFLDRFPPDSFVHMCQDLR (UniProt Q9H269) | 0.0649 | -0.065 |
| VPS13A_Q96RL7_582_CIIEAEPLEIIYDAR (UniProt Q96RL7) | 0.149 | 0.211 |
| UTRN_P46939_2185_ECIQEPSSVSQTR (UniProt P46939) | 0.0627 | 0.0855 |
| VPS8_Q8N3P4_974_AMDHIEELVSLKPCK (UniProt Q8N3P4) | 0.113 | -0.078 |
| UTRN_P46939_1627_LCVLNAGWSR (UniProt P46939) | 0.0369 | 0.0212 |
| VIRMA_Q69YN4_1559+1560_CCSDFDLHSELER (UniProt Q69YN4) | 0.0464 | -0.117 |

Record cards (already shown):
UTRN_P46939_2185_ECIQEPSSVSQTR (UniProt P46939) in the list: probe-labelled cysteine peptide fold change (10 µM) = 0.0627; probe-labelled cysteine peptide fold change (50 µM) = 0.0855
VPS8_Q8N3P4_974_AMDHIEELVSLKPCK (UniProt Q8N3P4) in the list: probe-labelled cysteine peptide fold change (10 µM) = 0.113; probe-labelled cysteine peptide fold change (50 µM) = -0.078
